Patent US20040170622A1, “Methods and compositions for modulating XBP-1 activity” (President and Fellows of Harvard College, priority 2002, published 2004)
These are yes or no findings as the source states them, for the method shown. Binding seen in cells or lysates may run through a third protein. Some binding calls cover weakened binding; strength is not graded here.

Sequences of proteins named here, by UniProt entry; tags and fusion partners are left off. Residues count along the entry.
UniProt P18850, residues 1-373: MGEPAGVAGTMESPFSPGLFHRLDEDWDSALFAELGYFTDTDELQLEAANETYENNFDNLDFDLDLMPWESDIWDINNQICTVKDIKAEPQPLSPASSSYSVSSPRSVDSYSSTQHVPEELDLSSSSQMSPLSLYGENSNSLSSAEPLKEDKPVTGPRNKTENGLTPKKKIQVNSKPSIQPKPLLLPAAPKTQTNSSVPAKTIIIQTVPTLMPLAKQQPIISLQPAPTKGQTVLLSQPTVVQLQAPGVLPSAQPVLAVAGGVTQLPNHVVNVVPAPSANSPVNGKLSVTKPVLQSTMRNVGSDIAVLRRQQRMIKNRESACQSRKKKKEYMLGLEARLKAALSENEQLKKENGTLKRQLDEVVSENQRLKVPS

T1: XBP-1s (spliced form of murine XBP-1 protein, 371 aa) (mouse) (UniProt O35426)
T1 sequence (looked up): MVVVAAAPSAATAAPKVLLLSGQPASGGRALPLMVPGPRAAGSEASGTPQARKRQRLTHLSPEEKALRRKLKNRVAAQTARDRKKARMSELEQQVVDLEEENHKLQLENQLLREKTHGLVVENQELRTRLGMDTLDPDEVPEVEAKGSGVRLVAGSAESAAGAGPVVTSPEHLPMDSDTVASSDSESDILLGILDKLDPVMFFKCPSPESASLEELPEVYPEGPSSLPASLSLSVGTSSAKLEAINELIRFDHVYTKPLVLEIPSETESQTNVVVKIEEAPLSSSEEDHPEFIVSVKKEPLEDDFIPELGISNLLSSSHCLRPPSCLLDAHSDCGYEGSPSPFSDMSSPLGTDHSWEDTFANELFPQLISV


Assays:
HA-tagged ATF6α (1-373) [1] = target: HA-tagged ATF6α (1-373) (UniProt P18850); test: co-immunoprecipitation from 293-T cells overexpressing HA-tagged ATF6α (1-373) and XBP-1s
HA-tagged ATF6α (1-373) [2] = target: HA-tagged ATF6α (1-373) (UniProt P18850); test: co-immunoprecipitation from cotransfected 293T cells (anti-HA IP, anti-XBP-1 immunoblot)
[3] = target: T1, XBP-1s (spliced form of murine XBP-1 protein, 371 aa) (mouse); test: co-immunoprecipitation from transfected 293T cells
HA-tagged ATF6α (1-373) [4] = target: HA-tagged ATF6α (1-373) (UniProt P18850); test: co-immunoprecipitation from transfected 293T cells

binding (HA-tagged ATF6α (1-373) [1]) | binding (HA-tagged ATF6α (1-373) [2]) | binding [3] | binding (HA-tagged ATF6α (1-373) [4]) | Binder
binds | binds |  |  | XBP-1s (spliced form of murine XBP-1 protein, 371 aa) (protein, mouse, UniProt O35426-2 1-371, looked up) MVVVAAAPSAATAAPKVLLLSGQPASGGRALPLMVPGPRAAGSEASGTPQARKRQRLTHLSPEEKALRRKLKNRVAAQTARDRKKARMSELEQQVVDLEEENHKLQLENQLLREKTHGLVVENQELRTRLGMDTLDPDEVPEVEAKGSGVRLVAGSAESAAGAGPVVTSPEHLPMDSDTVASSDSESDILLGILDKLDPVMFFKCPSPESASLEELPEVYPEGPSSLPASLSLSVGTSSAKLEAINELIRFDHVYTKPLVLEIPSETESQTNVVVKIEEAPLSSSEEDHPEFIVSVKKEPLEDDFIPELGISNLLSSSHCLRPPSCLLDAHSDCGYEGSPSPFSDMSSPLGTDHSWEDTFANELFPQLISV
 |  | binds | binds | dn-XBP (dominant negative XBP-1, N-terminal half, aa 1 to 188, of the XBP-1s protein) (protein, mouse, UniProt O35426-2 1-188, looked up) MVVVAAAPSAATAAPKVLLLSGQPASGGRALPLMVPGPRAAGSEASGTPQARKRQRLTHLSPEEKALRRKLKNRVAAQTARDRKKARMSELEQQVVDLEEENHKLQLENQLLREKTHGLVVENQELRTRLGMDTLDPDEVPEVEAKGSGVRLVAGSAESAAGAGPVVTSPEHLPMDSDTVASSDSESD
